This note sets out measurements from PubChem BioAssay AID248 (DTP/NCI, 2004).

SMILES strings stand for the structures. The list shows only some results of the screen, not a fair sample: it gathers tests that were run many times, whatever their T/C, doses with no T/C, and many T/C values between a quarter and a half above the control. Further doses and runs are listed elsewhere. T/C: endpoint of the treated group in % of that of the vehicle group. Some entries give survivors of the animals treated and no T/C: the source holds a T/C of zero for them, seemingly a mark for toxic or unscored doses. Some doses without a T/C left all or most animals alive at the check, yet need not have been tolerated: the source hardly ever lists a survival T/C far under the control, and the zero likely stands for such cases as well. Survivors were counted at the toxicity check, usually on the fifth day, unless a day is given; later deaths do not show. Schedule codes are those of the source, taken here to give the interval after Q, in days (D) or hours (H), and the number of doses after X. Counts like (3×) count equal records among those shown. Where survival is the endpoint, the PubChem record calls one and a half times the control and up active, and a quarter to a half above the control has no call in these data; cut-offs in other NCI protocols can differ.

The test concerns L1210 leukemia ip in BDF1 mice, survival T/C. The experiment in a line: NCI In Vivo Anticancer Drug Screen. Data for tumor model L1210 Leukemia (intraperitoneal) in B6D2F1 (BDF1) mice. The settings on record: T/C endpoint: mean survival time, higher T/C = longer survival.
Setting [1] is: dose: 100.0 mg/kg/injection, schedule: Q04DX002 (ip), vehicle: saline with Tween-80.
Where [2] appears, read: dose: 200.0 mg/kg/injection, schedule: Q04DX002 (ip), vehicle: saline with Tween-80.
Setting [3] is: dose: 400.0 mg/kg/injection, schedule: Q04DX002 (ip), vehicle: saline with Tween-80.
The mark [4] stands for this setting: dose: 400.0 mg/kg/injection, schedule: Q01DX001 (ip), vehicle: saline with Tween-80.

`CC(C)(C)OC(=O)NC(CO)C(=O)NC(Cc1ccc(OCc2ccccc2)cc1)C(=O)NCC(=O)O` (stereo not given): the survivor count (dose: 100.0 mg/kg/injection, schedule: Q01DX005 (ip), vehicle: saline) is 2 of 4.

Turning to `O=C(O)c1c(Cl)cccc1Cl`, the survivor count reads like this: (dose: 200.0 mg/kg/injection, schedule: Q01DX009 (ip), vehicle: saline with Tween-80) 6 of 6; (dose: 400.0 mg/kg/injection, schedule: Q01DX009 (ip), vehicle: saline with Tween-80) 1 of 6.

Take `Cc1ccc(NC(=O)Nc2cc(S(=O)(=O)O)ccc2Oc2ccccc2Cl)cc1`: the survivor count (dose: 400.0 mg/kg/injection, schedule: Q01DX009 (ip), vehicle: saline sonified) is 0 of 6.

For `O=S(=O)(O)SCC1NCCCN1`, the survivor count under setting [1] was 3 of 3, the survivor count under setting [2] is 0 of 3 and the survivor count under setting [3] is 0 of 3.

Turning to `O=C(O)c1c(F)cccc1F`, the survivor count (dose: 200.0 mg/kg/injection, schedule: Q04DX003 (ip), vehicle: Klucel (hydroxypropylcellulose) (HPC)) was 1 of 3.

As for `O=C(CNC(=O)NCc1ccco1)N/N=C/c1ccc(Cl)c(Cl)c1`, the survivor count (dose: 200.0 mg/kg/injection, schedule: Q01DX009 (ip), vehicle: Klucel (hydroxypropylcellulose) (HPC)) was 6 of 6 (2×).

In the case of `COc1ccc(NC(=O)Nc2cccc(Cl)c2C)c(OC)c1`, the survivor count under setting [3] is listed as 3 of 3.

For the compound `COc1c(C)c2c(c(O)c1C/C=C(\C)CCC(=O)O)C(=O)OC2`, the T/C (dose: 119.0 mg/kg/injection, schedule: Q01DX009 (ip), vehicle: saline) is 128 % of control; the T/C (dose: 178.0 mg/kg/injection, schedule: Q01DX009 (ip), vehicle: saline) was 129 % of control; the T/C (dose: 267.0 mg/kg/injection, schedule: Q01DX009 (ip), vehicle: saline) was 129 % of control; the T/C (dose: 400.0 mg/kg/injection, schedule: Q01DX009 (ip), vehicle: saline) is 129 % of control.

`CN(C)c1ncnc2c1ncn2Cc1ccccc1`: under setting [4], the survivor count is 0 of 3.

On to `CC1CN=C(c2ccc(NC(=O)c3ccc(C(=O)Nc4ccc(C5=NCC(C)CN5)cc4)cc3)cc2)NC1` (stereo not given), for which the survivor count is recorded as 3 of 6 (dose: 8.0 mg/kg/injection, schedule: Q01DX015 (ip), vehicle: water); 0 of 6 (dose: 16.0 mg/kg/injection, schedule: Q01DX015 (ip), vehicle: water); 0 of 6 (dose: 31.0 mg/kg/injection, schedule: Q01DX015 (ip), vehicle: methylcellulose (MC)); 0 of 6 (dose: 62.0 mg/kg/injection, schedule: Q01DX015 (ip), vehicle: methylcellulose (MC)); 0 of 6 (dose: 125.0 mg/kg/injection, schedule: Q01DX015 (ip), vehicle: methylcellulose (MC)); 0 of 6 (dose: 250.0 mg/kg/injection, schedule: Q01DX015 (ip), vehicle: methylcellulose (MC)).

As for `CCNC1=C(N2CC2)C(=O)C(NCC)=C(N2CC2)C1=O`, the T/C (dose: 0.37 mg/kg/injection, schedule: Q01DX009 (ip), vehicle: saline) was 134 % of control; the T/C (dose: 0.75 mg/kg/injection, schedule: Q01DX009 (ip), vehicle: saline) is 127 % of control; the T/C (dose: 1.5 mg/kg/injection, schedule: Q04DX003 (ip), vehicle: saline) was 146 % of control; the T/C (dose: 1.56 mg/kg/injection, schedule: Q04DX003 (ip), vehicle: saline) was 132 % of control; the T/C (dose: 3.0 mg/kg/injection, schedule: Q04DX003 (ip), vehicle: saline) is 128 % of control. For the same compound, the survivor count is, setting by setting: (dose: 6.0 mg/kg/injection, schedule: Q01DX001 (ip), vehicle: saline) 5 of 6; (dose: 6.0 mg/kg/injection, schedule: Q04DX003 (ip), vehicle: saline) 3 of 6; (dose: 12.5 mg/kg/injection, schedule: Q04DX003 (ip), vehicle: saline) 6 of 6; (dose: 25.0 mg/kg/injection, schedule: Q04DX003 (ip), vehicle: saline) 4 of 6; (dose: 50.0 mg/kg/injection, schedule: Q04DX003 (ip), vehicle: saline) 5 of 6; (dose: 100.0 mg/kg/injection, schedule: Q04DX003 (ip), vehicle: saline) 0 of 6.

Turning to `CCOC(=O)N/N=C/c1ccc(N(C)CCC#N)cc1`, under “dose: 100.0 mg/kg/injection, schedule: Q04DX003 (ip), vehicle: saline with Tween-80”, the survivor count is listed as 6 of 6. Moreover, the T/C under setting [4] was 137 % of control.

With `Nc1cnc([S][Sn]([c]2ccccc2)([c]2ccccc2)[c]2ccccc2)s1`, the survivor count is, setting by setting: under setting [1], 0 of 3; under setting [2], 0 of 3; under setting [3], 0 of 3.

For `O=C(NC(NC(=O)c1ccc(Cl)cc1)C(Cl)(Cl)Cl)c1ccc(Cl)cc1`, the survivor count reads like this: (dose: 200.0 mg/kg/injection, schedule: Q04DX003 (ip), vehicle: saline with Tween-80) 6 of 6; (dose: 400.0 mg/kg/injection, schedule: Q04DX003 (ip), vehicle: saline with Tween-80) 6 of 6.

As to `NN1N=Nc2cccc3cccc1c23`, for the setting “dose: 400.0 mg/kg/injection, schedule: Q04DX003 (ip), vehicle: saline”, the survivor count is given as 1 of 6.

Consider `COc1ccc2[nH]c3c(C)c4cc[n+](C)cc4c(C)c3c2c1`, for which the T/C (dose: 25.0 mg/kg/injection, schedule: Q04DX003 (ip), vehicle: saline sonified) is 128 % of control. In addition, the survivor count (dose: 40.0 mg/kg/injection, schedule: Q04DX003 (ip), vehicle: saline) was 5 of 6.

For `C=Cc1cnc(NC(C)=O)c(C#N)n1`, the survivor count (dose: 400.0 mg/kg/injection, schedule: Q01DX001 (ip), vehicle: Klucel (hydroxypropylcellulose) (HPC)) is 1 of 3.

In the case of `Nc1nc(N)c2c(no[n+]2[O-])n1`, the survivor count (dose: 150.0 mg/kg/injection, schedule: Q01DX001 (ip), vehicle: other) was 2 of 6 and the survivor count (dose: 300.0 mg/kg/injection, schedule: Q01DX001 (ip), vehicle: other) is reported as 0 of 6.
